Assay results as given in US20080064040A1, “Monitoring gene silencing and annotating gene function in living cells” (Odyssey Thera, Inc., priority 2003, published 2008).
At least one compound was matched to its structure with a doubt left.

Test system: AKT/PDPK1 complex
Experiment: YFP PCA for the AKT1/PDPK1 complex, fluorimetry and imaging in intact HEK293T cells
Type: cell-based, human
Conditions: activated cells, FIG. 2

For `COC[C@H]1OC(=O)c2coc3c2[C@@]1(C)C1=C(C3=O)[C@@H]2CCC(=O)[C@@]2(C)C[C@H]1OC(C)=O` [wortmannin], the “membrane localization of the AKT/PDPK1 complex” value was “prevents membrane localization of the AKT/PDPK1 complex”.
